The values that follow come from US20140221282A1 (priority 2011, published 2014).

A short description of this data set: general procedure: Fmoc solid-phase peptide synthesis; rink amide resin. As to conditions: conjugation step, overall, TFA salt.

For Des-Lys 1-Cmpd 4-PEG40K-Mal, the conjugation yield is 64.5% yield.
